Results are given in words; binding and its absence hold for the method and conditions named. A result given as binding can be weak or reduced; the word gives no strength. Sequences can lack the tags named with a protein.
Target: taxol-stabilized microtubules (purified bovine brain tubulin) (bovine)
Experiment: co-sedimentation; 500 nM purified protein with 3 μm taxol-stabilized microtubules, 30 min at room temperature; 60% glycerol BRB80 cushion, 50,000 rpm 30 min; supernatant and pellet on SDS-PAGE, Coomassie; both purified

B1: His-MBP-CCDC66 (570–948) (domain or fragment, UniProt A2RUB6 570-948)
chain: GVDTIQMEYNASNISNSRHDSDEISGKMNTYMNSTTSKKDTGVQTDDLNIGIFTNAESHCGSLMERDITNCSSPEISAELIGQFSTKKNKQELTQDKGASLEKENNRCNDQCNQFTRIEKQTKHMKKYPKRPDWNINKPPKRYIPASEKYPKQLQKQREEKKVRRQMELLHLVEKNNPGHLSQNRGISPEIFHSSHQETESKLRWHLVKKEEEPLNIHSFSKERSPSSPVPVVKNRTQQTQNTLHLPLKNSSYERENLISGSNQTELSSGISESSHFIPYVRTNEIYYLDPDAPLSGPSTQDPQYQNSQDCGQKRQLFDSDCVRDPLLNPNMVKNRDRQQAILKGLSELRQGLLQKQKELESSLLPLAENQEESFGSSF
Q: How did the binding turn out when B1 was run?
A: The binding was “binds”.
